Test results: US20260125468A1
These are yes or no findings as the source states them, for the method shown. Some entries that bind do so weakly or less than the wild type.

Sequences of proteins named here, by UniProt entry; tags and fusion partners are left off. A change or cut given only in a name is not applied to a line headed by its entry.
UniProt Q95LI5: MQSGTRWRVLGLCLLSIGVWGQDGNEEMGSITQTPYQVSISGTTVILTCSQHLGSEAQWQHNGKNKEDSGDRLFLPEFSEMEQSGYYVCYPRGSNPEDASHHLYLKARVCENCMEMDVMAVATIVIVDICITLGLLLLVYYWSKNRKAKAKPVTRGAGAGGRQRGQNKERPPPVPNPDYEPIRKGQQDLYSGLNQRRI
UniProt Q95LI8: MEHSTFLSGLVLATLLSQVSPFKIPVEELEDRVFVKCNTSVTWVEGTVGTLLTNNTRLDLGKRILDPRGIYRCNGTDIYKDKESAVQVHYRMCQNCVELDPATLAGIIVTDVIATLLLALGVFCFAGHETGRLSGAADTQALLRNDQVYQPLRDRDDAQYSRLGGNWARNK
UniProt Q95LI7: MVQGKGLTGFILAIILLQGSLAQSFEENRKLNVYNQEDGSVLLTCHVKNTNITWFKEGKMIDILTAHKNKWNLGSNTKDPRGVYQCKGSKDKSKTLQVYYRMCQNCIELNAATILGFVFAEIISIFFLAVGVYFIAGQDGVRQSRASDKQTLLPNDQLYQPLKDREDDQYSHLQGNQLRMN

Experiments:
[1] = target: T1, CD3 on T cells in cynomolgus monkey PBMCs (cynomolgus monkey) (UniProt Q95LI5+Q95LI8+Q95LI7); assay: FACS on cynomolgus monkey PBMCs, 2-fold serial dilution from 200 nM [A]
[2] = target: T1, CD3 on T cells in cynomolgus monkey PBMCs (cynomolgus monkey); assay: flow cytometry and cytotoxicity with cynomolgus monkey PBMCs (summary of FIG. 16 and FIG. 17)
[3] = target: T1, CD3 on T cells in cynomolgus monkey PBMCs (cynomolgus monkey); assay: flow cytometry on cynomolgus monkey PBMCs, diluted from 200 nM

Measured: binding

B1: PR010991, anti-CD3 3G11-HCAb hIgG1(C220S, AAA) (antibody, V domains shown)
VH: RVHLAESGGGLVQAGGSLRLSCAASGSRLNDNAMAWFRQAPGKEREFVGSIFWTGGNTYYADAVKGRLTISRDNAKNALYLQMNSLKPEDTAVYYCAASRVVWYYCSGYGCSRAGDYVYWGQGTQVTVSS
binds: [1] | [2] | [3]
